# Percent effect of library compounds

The chains behind the UniProt entries cited, without tags or fusion partners. Residues count along the entry.
UniProt I6X8D2, whole entry: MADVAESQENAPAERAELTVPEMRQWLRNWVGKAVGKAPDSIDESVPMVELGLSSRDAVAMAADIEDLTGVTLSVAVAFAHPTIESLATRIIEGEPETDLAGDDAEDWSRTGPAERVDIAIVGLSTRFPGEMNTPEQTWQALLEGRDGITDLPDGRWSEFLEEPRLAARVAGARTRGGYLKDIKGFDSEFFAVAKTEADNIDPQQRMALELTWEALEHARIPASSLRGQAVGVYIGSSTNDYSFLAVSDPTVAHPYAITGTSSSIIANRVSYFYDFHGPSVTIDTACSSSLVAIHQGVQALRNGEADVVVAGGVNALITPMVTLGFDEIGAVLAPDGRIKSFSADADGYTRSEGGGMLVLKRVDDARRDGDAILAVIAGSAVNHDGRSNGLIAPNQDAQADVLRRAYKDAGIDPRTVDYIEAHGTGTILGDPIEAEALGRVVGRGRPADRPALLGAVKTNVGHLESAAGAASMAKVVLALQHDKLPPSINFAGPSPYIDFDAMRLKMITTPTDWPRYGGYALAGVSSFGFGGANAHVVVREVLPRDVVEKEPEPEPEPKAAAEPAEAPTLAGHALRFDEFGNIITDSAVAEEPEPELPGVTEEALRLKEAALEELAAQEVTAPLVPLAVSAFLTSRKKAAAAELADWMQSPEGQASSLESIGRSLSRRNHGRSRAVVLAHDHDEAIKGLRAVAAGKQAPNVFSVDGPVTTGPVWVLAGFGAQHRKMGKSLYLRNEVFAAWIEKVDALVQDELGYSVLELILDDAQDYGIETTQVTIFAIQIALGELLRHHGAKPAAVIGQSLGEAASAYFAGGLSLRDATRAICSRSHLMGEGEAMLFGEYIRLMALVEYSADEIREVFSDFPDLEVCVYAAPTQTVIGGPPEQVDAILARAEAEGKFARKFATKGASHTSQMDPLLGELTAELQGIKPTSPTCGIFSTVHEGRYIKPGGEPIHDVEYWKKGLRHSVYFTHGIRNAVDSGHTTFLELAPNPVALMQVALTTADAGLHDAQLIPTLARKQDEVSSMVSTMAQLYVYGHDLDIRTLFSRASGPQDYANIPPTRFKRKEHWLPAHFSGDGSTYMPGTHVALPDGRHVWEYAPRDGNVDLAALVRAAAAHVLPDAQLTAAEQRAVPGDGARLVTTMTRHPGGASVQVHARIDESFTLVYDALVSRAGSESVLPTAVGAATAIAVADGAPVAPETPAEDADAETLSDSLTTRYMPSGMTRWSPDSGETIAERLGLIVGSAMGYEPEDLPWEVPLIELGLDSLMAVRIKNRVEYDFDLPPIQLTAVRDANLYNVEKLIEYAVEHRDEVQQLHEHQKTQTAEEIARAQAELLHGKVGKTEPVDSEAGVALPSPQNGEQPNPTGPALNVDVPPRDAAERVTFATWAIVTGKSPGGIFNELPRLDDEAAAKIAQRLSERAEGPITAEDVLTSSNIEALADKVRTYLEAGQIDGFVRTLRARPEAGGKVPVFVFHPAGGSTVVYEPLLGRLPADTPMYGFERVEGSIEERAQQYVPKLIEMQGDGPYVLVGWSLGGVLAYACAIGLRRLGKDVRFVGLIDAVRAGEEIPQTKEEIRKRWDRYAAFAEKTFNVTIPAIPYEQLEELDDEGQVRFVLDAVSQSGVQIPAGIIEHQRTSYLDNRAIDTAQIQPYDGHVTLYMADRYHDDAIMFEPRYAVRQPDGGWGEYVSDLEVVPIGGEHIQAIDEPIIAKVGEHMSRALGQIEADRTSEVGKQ
UniProt Q4DA54, 1-478: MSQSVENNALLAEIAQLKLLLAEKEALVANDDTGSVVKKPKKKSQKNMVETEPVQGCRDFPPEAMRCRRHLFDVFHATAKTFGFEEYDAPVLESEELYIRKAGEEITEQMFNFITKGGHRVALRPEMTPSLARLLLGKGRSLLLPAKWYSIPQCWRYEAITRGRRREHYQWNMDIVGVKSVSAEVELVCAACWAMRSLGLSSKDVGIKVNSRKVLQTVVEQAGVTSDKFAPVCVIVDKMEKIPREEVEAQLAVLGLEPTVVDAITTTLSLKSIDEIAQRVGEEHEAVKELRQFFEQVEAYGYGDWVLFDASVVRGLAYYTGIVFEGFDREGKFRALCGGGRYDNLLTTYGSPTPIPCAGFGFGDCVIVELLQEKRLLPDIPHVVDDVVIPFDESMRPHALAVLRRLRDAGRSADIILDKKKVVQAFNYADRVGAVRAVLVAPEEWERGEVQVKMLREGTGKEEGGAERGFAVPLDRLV
UniProt P9WPC5, whole entry: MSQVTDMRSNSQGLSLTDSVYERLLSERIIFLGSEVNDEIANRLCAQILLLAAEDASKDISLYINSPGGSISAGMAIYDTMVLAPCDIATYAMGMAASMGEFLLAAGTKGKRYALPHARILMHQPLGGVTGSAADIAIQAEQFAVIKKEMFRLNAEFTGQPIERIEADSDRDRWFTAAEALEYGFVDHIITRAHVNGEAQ
UniProt P9WPC3, whole entry partner: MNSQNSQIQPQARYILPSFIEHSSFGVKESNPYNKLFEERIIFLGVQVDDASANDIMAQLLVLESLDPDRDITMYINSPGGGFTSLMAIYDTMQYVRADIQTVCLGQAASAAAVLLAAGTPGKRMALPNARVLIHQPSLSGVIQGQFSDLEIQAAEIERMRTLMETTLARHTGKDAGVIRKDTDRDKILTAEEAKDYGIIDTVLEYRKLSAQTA
UniProt A4I591, 1-473: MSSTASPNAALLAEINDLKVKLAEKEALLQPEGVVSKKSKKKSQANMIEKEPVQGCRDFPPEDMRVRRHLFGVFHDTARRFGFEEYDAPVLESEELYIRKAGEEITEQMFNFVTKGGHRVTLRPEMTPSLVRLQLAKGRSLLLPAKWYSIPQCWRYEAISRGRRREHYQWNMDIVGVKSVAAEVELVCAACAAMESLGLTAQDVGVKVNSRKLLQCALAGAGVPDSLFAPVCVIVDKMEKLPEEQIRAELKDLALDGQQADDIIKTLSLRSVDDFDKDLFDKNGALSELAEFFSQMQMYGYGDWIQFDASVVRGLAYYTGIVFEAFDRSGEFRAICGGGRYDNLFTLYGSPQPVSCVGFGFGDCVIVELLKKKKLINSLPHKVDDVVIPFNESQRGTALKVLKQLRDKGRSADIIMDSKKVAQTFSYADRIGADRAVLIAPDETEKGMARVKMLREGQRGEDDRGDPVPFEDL

Measurements from “University of Dundee, Small-Polar-MMV Screening Library” (2021), ChEMBL document CHEMBL3988442.

Pks13 thioesterase: 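Polyketide synthase Pks13, Mycobacterium tuberculosis (UniProt I6X8D2). Enzyme assay of the thioesterase domain of polyketide synthase 13; the read-out is not stated. Tested at 30 µM. Higher reads as stronger inhibition (inferred from which compounds were picked for retests). Size under these conditions: about 67,000 compounds, about 300 of them at 50% or above in at least one test.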
TcHisRS: 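Enzyme assay of histidyl-tRNA synthetase; the read-out is not stated. Target: Histidine-tRNA ligase, Trypanosoma cruzi CL Brener (UniProt Q4DA54). Compounds at 30 µM. The record gives no direction; compounds that gave an IC50 in retests scored well above the rest, so higher reads as stronger inhibition. Size under these conditions: about 69,000 compounds, about 31 of them at 50% or above in at least one test.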
ClpP1P2: 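ClpP1P2, Mycobacterium tuberculosis (UniProt P9WPC5 and UniProt P9WPC3). Protease assay of ClpP1P2, read by the AMC dye that it sets free. Tested at 50 µM. Higher reads as stronger inhibition, judged from the few compounds that gave an IC50. Most other retested compounds had strongly negative values. Size under these conditions: about 69,000 compounds, about 10 of them at 50% or above in at least one test.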
Leishmania in macrophages: 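Cell assay of Leishmania donovani living inside macrophages; the read-out is not stated. Concentration: 30 µM. Direction is inferred from retests: higher values go with stronger inhibition. Size under these conditions: about 69,000 compounds, about 1,000 of them at 50% or above in at least one test.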
LiHisRS: 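Enzyme assay of histidyl-tRNA synthetase; the read-out is not stated. Target: Histidine-tRNA ligase, Leishmania infantum (UniProt A4I591). Tested at 30 µM. Direction is inferred from retests: higher values go with stronger inhibition. The assay is labelled LdHisRS but filed under L. infantum. Of about 69,000 compounds tested this way, about 410 (0.6%) reached 50% or more in at least one test.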

The filed quantity is “Percent Effect” (%).
The controls that fix the scale are not given in the record; negative values are as filed.
The compounds are a random part of those screened.
Two or more numbers in one place are separate tests of the same structure; such repeats can differ widely.
A dash means the value is not listed here; it may have been measured.

structure,Pks13 thioesterase,TcHisRS,ClpP1P2,Leishmania in macrophages,LiHisRS
COc1cccc(C(=O)N2C[C@@H](CN(C)CCO)[C@@H](CO)C2)c1C,-31.06,-1.02,12.06,-5.049,14.52
CCc1nc2c(N3CCC4(CC3)CC(=O)N(CC(C)C)C4)ncnc2o1,-28.55,7.447,-4.568,71.44,10.45
Cc1cccc(N2CCN(Cc3nc(CC4CC4)no3)CC2)n1,-15.46,2.128,-11.07,-18.35,10.45
COc1cccc(-c2n[nH]cc2C(=O)NC(C)c2nc(C(C)C)no2)c1 (stereo unspecified),-25.45,-3.59,-2.008,18.46,12.7
O=C(Cc1cccnc1)N1CCC2(CC1)CCN(C1CCOC1)C2 (stereo unspecified),14.02,0.9901,-7.862,-,31.51
O=C(c1ccc(OCC2CC2)nc1)N1CCCC(n2cccn2)C1 (stereo unspecified),-6.964,4.399,-15.77,-4.437,13.89
COc1ccccc1CN1C[C@@H](F)[C@@H](OCc2nc3ncccc3[nH]2)C1,-32.09,2.488,-5.412,33.82,24.32
Cc1noc([C@@H]2CCO[C@@H]3CCN(Cc4ccc(C)s4)C[C@@H]32)n1,-11.74,14.29,10.12,-,15.6
Cc1ccnn1CC(=O)N1CCCN(C2Cc3ccccc3C2)CC1,-20.54,9.783,-9.366,6.285,38.16
Cc1cccc(Nc2cc(C3CCCN(CC(N)=O)C3)ccn2)n1.O=CO.O=CO (stereo unspecified),-,-,-,-23.37,-
CCCS(=O)(=O)N1CCc2onc(CNc3ncccn3)c2C1,23.5,3.96,-3.593,-21.65,-1.37
Cc1cc(C)n(CC2CCCN2CC(=O)N(C)Cc2cnn(C)c2)n1 (stereo unspecified),11.68,3.759,4.389,-0.8108,35.71
COc1ccccc1C1(C(=O)N2CCCC(c3cc(C)[nH]n3)C2)CC1 (stereo unspecified),-6.971,4.36,-25.04,33.43,9.649
O=C(CCn1cncn1)NC1(c2cccc(Br)c2)CCC1,-17.11,-2.51,-7.606,12.14,16.04
COCCN(C/C=C/c1ccccc1)Cc1nccs1,-27.56,6.122,5.497,9.224,5.714
CC[C@H](C)Nc1ncc(-c2ccn(C3CCN(C(C)=O)CC3)n2)cn1,10.02,3.39,-0.103,-4.234 and 7.526,17.14
CN(C)c1ncccc1CNC(=O)N1CCCC1c1ccsc1 (stereo unspecified),-11.91,0.7634,1.537,13.08,-2.74
COc1cccc(C(C(=O)O)N2CCC(Cn3cccn3)CC2)c1OC (stereo unspecified),-34.74,2.155,-15.7,3.274,11.39
CN1CCC(N(Cc2ccco2)S(=O)(=O)c2ccc(Br)cc2Cl)CC1,-27.69,1.02,-2.67,87.02,25.71
NC(=O)CCC1CCCN(c2ccc3ccc(F)cc3n2)C1 (stereo unspecified),19.08,6.931,-112.7,-8.241,2.381
COc1ccc(C(=O)N2CCOC3(CNCCOC3)C2)c(OC)n1 (stereo unspecified),13.49,-2.513,-3.658,-12.25,13.6
O=C1NCC2=C1C(c1ccccc1)Nc1ccccc1N2 (stereo unspecified),-8.921,3.125,2.901,1.305,10.42
Cl.O=C(C1CCC1)N1CCC2(CCNCC2)C1,-,-,-,0.9612,-
COC(=O)c1sc2cccc(F)c2c1CNC(=O)C1CCCO1 (stereo unspecified),1.857,8.333,5.89,-6.996,6.306
CCn1cncc1CN1CCc2nc3sccc3c(=O)n2CC1,-20.6,5.429,-21.41,29.24,9.396
Cn1ccnc1CN1C[C@H]2CN(S(C)(=O)=O)CCN2C1=O,-24.55,3.483,-10,-,2.703
Cc1ccc(C2CCCN(S(=O)(=O)N3CCOCC3)C2)nc1 (stereo unspecified),-3.373,0.3831,-13.25,17.49,2.878
CN1CCN(c2cc(CNC(=O)c3ccc(=O)n(C)c3)ccn2)CC1,-2.835,0.7634,9.088,25.28,4.255
c1ccc(-c2nc(CN3CCCC3Cn3cncn3)cs2)cc1 (stereo unspecified),-19.32,1.504,0.01754,31,21.35
Cc1cccc(CNC[C@H]2Cn3ccnc3CO2)n1,-23.89,6.522,-11.64,12.5,20.27
CCN(CC1CN(CC2CCC2)CCO1)c1cccnn1 (stereo unspecified),2.871,11.67,-13,14.64,8.036
CCN(Cc1nccn1C)C(=O)c1ccc(NCc2cnn(C)c2)nc1,-12.05,-3.865,-23.08,7.604,-2.5
[H][C@@]12CN(C(=O)c3conc3C)C[C@]1([H])C(=O)N(Cc1cccc(C)c1)C2,-,-,-,11.8,-

The first 2 entries again:

structure,Pks13 thioesterase,TcHisRS,ClpP1P2,Leishmania in macrophages,LiHisRS
COc1cccc(C(=O)N2C[C@@H](CN(C)CCO)[C@@H](CO)C2)c1C,-31.06,-1.02,12.06,-5.049,14.52
CCc1nc2c(N3CCC4(CC3)CC(=O)N(CC(C)C)C4)ncnc2o1,-28.55,7.447,-4.568,71.44,10.45